In the supplement of paper PMC7752906:
Where a name gives a salt, the structure may show the parent alone. The list shows a part of the results. This data set is noisy: repeats of one test often differ as much as different tests do.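 Test system: Schistosoma mansoni schistosomula, roughly 40 per well, imaged in bright field over time and compared with wells given 0.1% DMSO. Distance read-out: the paper calls a drug a hit when its Mahalanobis distance is at least 2.47, three standard deviations above the DMSO control mean. Degeneracy is the share of worms classified opaque.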

system: Schistosoma mansoni schistosomula; assay: degeneracy (percent of somules classified as degenerate/opaque); higher = more parasite degeneration/death; extreme values may be limits of the assay; conditions: 10 µM; 72 h

SMILES	degeneracy
CC1=C(C(=O)O)N2C(=O)[C@@H](NC(=O)[C@H](N)C3=CCC=CC3)[C@H]2SC1 [Cephradine]	12.8%
N[C@@H](CCC(=O)N[C@@H](CS)C(=O)NCC(=O)O)C(=O)O [Glutathione]	0%
CCCCC(CC)CCC(CC(C)C)OS(=O)(=O)O (configuration not stated) [Sodium Tetradecyl Sulfate]	100%
COc1ccc2cc([C@H](C)CO)ccc2c1 [Naproxol]	4.35%
C#C[C@]1(OC(C)=O)CC[C@H]2[C@@H]3CCC4=CC(=NO)CC[C@@H]4[C@H]3CC[C@@]21CC (mixture of isomers) [Norgestimate]	27.6%
Clc1ccc(CO/N=C(\Cn2ccnc2)c2ccc(Cl)cc2Cl)c(Cl)c1 [Oxiconazole]	18.9%
Clc1ccc(Cn2c(CN3CCCC3)nc3ccccc32)cc1 [Clemizole Hydrochloride]	100%
CCCCCCCCCCCCCCCC(=O)OC[C@@H](NC(=O)C(Cl)Cl)[C@H](O)c1ccc([N+](=O)[O-])cc1 [Chloramphenicol Palmitate]	12.9%
[O-][n+]1cccc(CO)c1 [Mepiroxol]	100%
Cc1ccnc(NS(=O)(=O)c2ccc(N)cc2)n1 [Sulfamerazine]	100%
NC(=O)OCC(COC(N)=O)c1ccccc1 [Felbamate]	9.43%
COC(=O)N[C@H](C(=O)N[C@@H](Cc1ccccc1)[C@@H](O)CN(Cc1ccc(-c2ccccn2)cc1)NC(=O)[C@@H](NC(=O)OC)C(C)(C)C)C(C)(C)C [Atazanavir]	6.25%
NCCCC(O)(P(=O)(O)O)P(=O)(O)O [Alendronate Sodium]	6.9%
CNC[C@H](O)[C@@H](O)[C@H](O)[C@H](O)CO [Meglumine]	2.08%
CCCCNc1cc(C(=O)O)cc(S(N)(=O)=O)c1Oc1ccccc1 [Bumetanide]	10%
CC(C)n1c(/C=C/C(O)CC(O)CC(=O)O)c(-c2ccc(F)cc2)c2ccccc21 (configuration not stated) [fluvastatin]	82.6%
CC(C)CCCC(C)N (configuration not stated) [Octodrine]	8.7%
CC(=O)N[C@@H](CS)C(=O)O [Acetylcysteine]	0%
OC(c1cc(C(F)(F)F)nc2c(C(F)(F)F)cccc12)C1CCCCN1 (configuration not stated) [mefloquine]	100%
CNCCCC12CCC(c3ccccc31)c1ccccc12 [Maprotiline]	100%
CC1(C)C[C@@H]1C(=O)N/C(=C\CCCCSC[C@H](N)C(=O)O)C(=O)O [Cilastatin]	2.94%
C[C@@H](O)[C@H]1C(=O)N2C(C(=O)O)=C(S[C@@H]3CN[C@H](C(=O)N(C)C)C3)[C@H](C)[C@H]12 [Meropenem]	0%
Cc1cc(C)cc(OCC2CNC(=O)O2)c1 (configuration not stated) [Metaxalone]	4%
CC(=O)O[C@H]1C[C@@H]2CC[C@@H]3[C@H](CC[C@@]4(C)[C@H]3C[C@H]([N+]3(C)CCCCC3)[C@@H]4OC(C)=O)[C@@]2(C)C[C@@H]1N1CCCCC1 [Vecuronium Bromide]	0%

Filtered by structure, the compounds so far containing fluorine (2)
SMILES	degeneracy
CC(C)n1c(/C=C/C(O)CC(O)CC(=O)O)c(-c2ccc(F)cc2)c2ccccc21 (configuration not stated) [fluvastatin]	82.6%
OC(c1cc(C(F)(F)F)nc2c(C(F)(F)F)cccc12)C1CCCCN1 (configuration not stated) [mefloquine]	100%

Later entries

SMILES	degeneracy
CC1(C)O[C@@H]2C[C@H]3[C@@H]4CCC5=CC(=O)CC[C@]5(C)[C@@]4(F)[C@@H](O)C[C@]3(C)[C@]2(C(=O)CCl)O1 [Halcinonide]	3.33%
C[C@]12C=CC(=O)C=C1CC[C@H]1[C@@H]3C[C@@H](O)[C@](O)(C(=O)CO)[C@@]3(C)C[C@H](O)[C@@]12F [Triamcinolone]	7.14%
CCN(CC)C(=O)/C(C#N)=C/c1cc(O)c(O)c([N+](=O)[O-])c1 [Entacapone]	2.04%
C[C@@H]1O[C@@H](OC[C@H]2O[C@@H](Oc3c(-c4ccc(OCCO)c(OCCO)c4)oc4cc(OCCO)cc(O)c4c3=O)[C@H](O)[C@@H](O)[C@@H]2O)[C@H](O)[C@H](O)[C@H]1O [Troxerutin]	9.68%
CN1C(=O)OC(C)(C)C1=O [Trimethadione]	4.35%
CC(=O)CCCCn1c(=O)c2c(ncn2C)n(C)c1=O [Pentoxifylline]	7.89%
Nc1c(CC(=O)O)cccc1C(=O)c1ccc(Br)cc1 [Bromfenac]	6.82%
COc1c(C)c2c(c(O)c1C/C=C(\C)CCC(=O)O)C(=O)OC2 [Mycophenolic Acid]	9.09%
O=C(Oc1ccccc1C(=O)O)c1ccccc1O [Salsalate]	5.56%
CCN1CCCC(OC(=O)C(c2ccccc2)c2ccccc2)C1 (configuration not stated) [Piperidolate Hydrochloride]	2.94%
NCCNCCNCCN [Trientine Hydrochloride]	13%
O=C(NCCN1CCOCC1)c1ccc(Cl)cc1 [Moclobemide]	6.67%
CCCC1O[C@@H]2C[C@H]3[C@@H]4CCC5=CC(=O)C=C[C@]5(C)[C@H]4[C@@H](O)C[C@]3(C)[C@]2(C(=O)CO)O1 (some centres not stated) [Budesonide]	6.45%
Nc1nc(N)c2nc(CNc3ccc(C(=O)N[C@@H](CCC(=O)O)C(=O)O)cc3)cnc2n1 [Aminopterin]	0%
CC(C(=O)O)c1cccc(C(=O)c2ccccc2)c1 (configuration not stated) [Ketoprofen]	17.2%
CCOC(=O)c1ncn2c1CN(C)C(=O)c1cc(F)ccc1-2 [Flumazenil]	15.4%
C#C[C@]1(O)CC[C@H]2[C@@H]3CCc4cc(O)ccc4[C@H]3CC[C@@]21C [Ethinylestradiol]	13.5%
CC(C)(C)NC(=O)[C@@H]1C[C@@H]2CCCC[C@@H]2CN1C[C@@H](O)[C@H](Cc1ccccc1)NC(=O)[C@H](CC(N)=O)NC(=O)c1ccc2ccccc2n1 [Saquinavir]	11.1%
CCCCCN(CCCCC)C(=O)C(CCC(=O)O)NC(=O)c1ccc(Cl)c(Cl)c1 (configuration not stated) [Lorglumide Sodium]	16.1%
COc1ccc(C(=O)c2ccccc2)c(O)c1 [Oxybenzone]	16.7%
COc1ncnc(NS(=O)(=O)c2ccc(N)cc2)c1OC [Sulfadoxine]	0%
CC(=O)OCC(=O)[C@@]1(O)[C@H](C)C[C@H]2[C@@H]3CCC4=CC(=O)C=C[C@]4(C)[C@@]3(F)[C@@H](O)C[C@@]21C [Dexamethasone Acetate]	8.11%
COc1ccc(C(=O)CC(=O)c2ccc(C(C)(C)C)cc2)cc1 [Avobenzone]	2.56%
